These are yes or no findings as the source states them, for the method shown. Binding seen in cells or lysates may run through a third protein. Some binding calls cover weakened binding; strength is not graded here.
Target: Cytoplasmic FMRP-interacting protein 1 (CYFIP1) (mouse (endogenous in primary cortical neurons)) (UniProt Q7TMB8)
Experiment: co-IP; CYFIP1 immunoprecipitation on protein extracts from DIV 3 WT cortical neurons; HuD/Elavl4 and HuR/Elavl1 found in the precipitate (Fig. S4d)

Chains of the proteins cited; added tags and fusions are not shown.
UniProt Q7TMB8: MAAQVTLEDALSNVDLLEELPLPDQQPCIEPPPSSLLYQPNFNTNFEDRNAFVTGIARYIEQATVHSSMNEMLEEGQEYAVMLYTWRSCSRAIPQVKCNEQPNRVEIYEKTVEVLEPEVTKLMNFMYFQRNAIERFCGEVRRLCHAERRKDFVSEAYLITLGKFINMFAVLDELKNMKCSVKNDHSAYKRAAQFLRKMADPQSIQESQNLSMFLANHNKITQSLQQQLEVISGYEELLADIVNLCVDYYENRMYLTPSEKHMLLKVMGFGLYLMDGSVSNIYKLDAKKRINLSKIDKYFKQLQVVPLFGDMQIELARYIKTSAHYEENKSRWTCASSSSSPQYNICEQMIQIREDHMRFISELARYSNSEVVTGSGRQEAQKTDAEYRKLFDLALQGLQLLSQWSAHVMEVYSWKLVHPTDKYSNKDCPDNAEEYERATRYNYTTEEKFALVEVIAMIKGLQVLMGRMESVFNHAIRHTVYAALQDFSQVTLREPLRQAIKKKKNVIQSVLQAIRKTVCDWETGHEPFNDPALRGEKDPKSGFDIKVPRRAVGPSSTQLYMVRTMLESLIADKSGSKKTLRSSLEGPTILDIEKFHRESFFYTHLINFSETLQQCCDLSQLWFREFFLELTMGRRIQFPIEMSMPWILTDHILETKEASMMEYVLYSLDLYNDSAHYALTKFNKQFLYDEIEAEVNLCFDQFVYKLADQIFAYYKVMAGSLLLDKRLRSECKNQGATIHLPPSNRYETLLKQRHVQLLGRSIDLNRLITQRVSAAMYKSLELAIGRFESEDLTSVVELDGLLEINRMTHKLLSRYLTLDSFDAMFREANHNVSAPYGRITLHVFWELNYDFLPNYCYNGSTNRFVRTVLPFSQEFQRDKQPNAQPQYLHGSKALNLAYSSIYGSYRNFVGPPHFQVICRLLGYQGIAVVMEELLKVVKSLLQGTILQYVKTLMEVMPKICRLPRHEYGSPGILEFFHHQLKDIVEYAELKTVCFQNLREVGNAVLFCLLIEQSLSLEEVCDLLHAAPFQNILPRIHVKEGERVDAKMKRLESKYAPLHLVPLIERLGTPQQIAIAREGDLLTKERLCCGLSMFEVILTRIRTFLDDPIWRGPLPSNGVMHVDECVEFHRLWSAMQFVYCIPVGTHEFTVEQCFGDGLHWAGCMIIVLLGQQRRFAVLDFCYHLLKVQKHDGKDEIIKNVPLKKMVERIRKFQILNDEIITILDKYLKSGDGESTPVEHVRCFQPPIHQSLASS
UniProt Q61701: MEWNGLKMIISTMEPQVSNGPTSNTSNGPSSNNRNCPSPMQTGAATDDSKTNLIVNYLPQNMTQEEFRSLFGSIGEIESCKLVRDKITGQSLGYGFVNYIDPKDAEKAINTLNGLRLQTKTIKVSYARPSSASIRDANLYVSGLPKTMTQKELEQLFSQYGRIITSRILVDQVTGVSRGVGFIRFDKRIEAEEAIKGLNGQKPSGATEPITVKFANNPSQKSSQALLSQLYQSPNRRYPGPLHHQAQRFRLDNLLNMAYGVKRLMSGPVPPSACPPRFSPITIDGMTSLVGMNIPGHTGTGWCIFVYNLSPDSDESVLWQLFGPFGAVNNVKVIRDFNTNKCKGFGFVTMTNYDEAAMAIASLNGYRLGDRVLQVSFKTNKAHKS
UniProt P70372: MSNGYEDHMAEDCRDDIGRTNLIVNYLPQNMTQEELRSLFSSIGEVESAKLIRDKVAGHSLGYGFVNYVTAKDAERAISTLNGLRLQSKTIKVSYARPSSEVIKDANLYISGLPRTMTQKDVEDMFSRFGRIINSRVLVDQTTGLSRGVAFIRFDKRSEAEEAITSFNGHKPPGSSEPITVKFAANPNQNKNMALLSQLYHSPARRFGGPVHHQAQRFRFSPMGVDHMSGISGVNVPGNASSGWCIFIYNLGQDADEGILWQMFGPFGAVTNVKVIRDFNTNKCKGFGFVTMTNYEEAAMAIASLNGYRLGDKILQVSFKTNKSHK

binding	Substance
binds	HuD/Elavl4 (from UniProt Q61701 1-385)
binds	HuR/Elavl1 (from UniProt P70372 1-326)
